PubChem BioAssay AID1224826 | NIAID – 2016
Screen: 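Knock-downs that raise or lower Tnf reporter signal after endotoxin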 (primary screen). System: RAW264.7 G9 macrophages from mouse bearing reporters for p65 (GFP) and the Tnf promoter (mCherry). Reagents: siRNA pool against mouse genes, 100 nM. Duration: 16 h of LPS stimulation, after 2 days of siRNA transfection. Challenge: bacterial lipopolysaccharide (Salmonella minnesota R595), 10 ng/ml. Detection: 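Imaged Tnf reporter mCherry in nuclei, minus background, normalised per plate to the median and expressed as robust z-scores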. Direction: Tnf reporter robust z-score: higher = stronger Tnf promoter reporter signal after LPS; Tnf reporter intensity: higher = stronger Tnf promoter reporter signal. Active means: 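a well counts as active at a score of -1.3 or below (Tlr4 knock-down control median) or above 3 (raised signal); controls and wells holding fewer than 50 cells are excluded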. Calls: active = Tnf reporter clearly lowered or raised; inactive = no clear change in Tnf reporter.
In all, the deposit lists about 17,000 reagents; below is a random part of them. Over the whole deposit, about 1,110 (6.6%) got an active call. 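Active means lowered or raised reporter signal; replicate intensities are raw and not normalised per plate.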 Entries without a mark were called inactive. Further read-outs or replicates are left out here.

no.	gene symbol	Tnf reporter robust z-score	fewer than 50 cells in well	Tnf reporter intensity, replicate 1
1	Abhd14b	1.71	enough cells in well	332
2	Or8b44	-0.88	enough cells in well	70.8
3	Pate6	-1.31 (active)	enough cells in well	117
4	Bphl	0.83	enough cells in well	205
5	Macrod1	-1.04	enough cells in well	132
6	Ppm1h	-0.16	enough cells in well	141
7	Smad2	0.41	enough cells in well	366
8	Tymp	1.2	enough cells in well	299
9	Wnt2	-0.42	enough cells in well	308
10	Pappa	-0.06	enough cells in well	212
11	Edc3	1.48	enough cells in well	225
12	Elavl4	-0.57	enough cells in well	183
13	Nudt8	0.64	enough cells in well	275
14	Krt10	0.21	enough cells in well	233
15	Ccdc122	0.41	enough cells in well	197
16	H2bc1	-0.74	enough cells in well	198
17	Aimp2	1.5	enough cells in well	337
18	Cdcp1	1.6	enough cells in well	267
19	Cog4	0.14	enough cells in well	235
20	Trp53rkb	-0.52	enough cells in well	150
21	Eci2	-0.31	enough cells in well	193
22	A930012M17	0.34	enough cells in well	150
23	Cog2	-1.31 (active)	enough cells in well	75.8
24	Hoxa1	-0.49	enough cells in well	173
25	Vps4a	1.08	enough cells in well	144
26	Col9a2	-0.37	enough cells in well	182
27	Slitrk3		fewer than 50 cells per well; well left out of calls	67.9
28	Napb	-0.97	enough cells in well	158
29	Tmsb15l	-0.43	enough cells in well	178

Entries listed so far called active:
gene symbol	Tnf reporter robust z-score	fewer than 50 cells in well	Tnf reporter intensity, replicate 1
Pate6	-1.31 (active)	enough cells in well	117
Cog2	-1.31 (active)	enough cells in well	75.8

Further reagents follow:
no.	gene symbol	Tnf reporter robust z-score	fewer than 50 cells in well	Tnf reporter intensity, replicate 1
30	Col1a1	0.16	enough cells in well	213
31	Klk4	1.08	enough cells in well	274
32	Ccdc88b		fewer than 50 cells per well; well left out of calls	142
33	Mapkapk2	2.37	enough cells in well	339
34	Zfp30	-0.67	enough cells in well	77.4
35	Tbx20	0.28	enough cells in well	128
36	Ahsa1	0.85	enough cells in well	238
37	Zfp397	-1.06	enough cells in well	33.1
38	Ttyh1	-1	enough cells in well	84.7
39	Ugt3a1	1	enough cells in well	277
40	Sqor	4.46 (active)	enough cells in well	272
41	Gfpt1	-0.28	enough cells in well	201
42	Emilin3	-0.4	enough cells in well	164
43	Plxna4		fewer than 50 cells per well; well left out of calls	141
44	Srp14		fewer than 50 cells per well; well left out of calls	57.1
45	Prelid3a	-0.63	enough cells in well	144
46	Orc2	1.46	enough cells in well	198
47	Ncapd2		fewer than 50 cells per well; well left out of calls	246
48	Kdf1	-0.64	enough cells in well	131
49	Dgcr8	-2.09 (active)	enough cells in well	77.4
50	Clrn1	-0.59	enough cells in well	160
51	Ppp3r1	0.07	enough cells in well	253
52	Slc7a3	-0.66	enough cells in well	73.9
53	Larp7	3.39 (active)	enough cells in well	406
54	Clpp	0.66	enough cells in well	351
55	Gata2	0.35	enough cells in well	304
56	Rad52	0.7	enough cells in well	368
57	Itga3	-0.14	enough cells in well	232
58	Mrgpra7	2.28	enough cells in well	340
